According to paper PMC12860355:
No constants are given. Whether binding was seen depends on the method and setting. Some results given as binding are weak or reduced against the parent protein; the word gives no strength.

Protein sequences, listed by entry. Tags and fused reporters are not part of them. Lines headed by an entry give the natural chain unless they say otherwise; changes in a name come on top. Chains listed by the source or under a name are the forms on record and can include a tag or linker.
S119A S120A cofilin (human cofilin-1 double point mutant) (P23528, form named): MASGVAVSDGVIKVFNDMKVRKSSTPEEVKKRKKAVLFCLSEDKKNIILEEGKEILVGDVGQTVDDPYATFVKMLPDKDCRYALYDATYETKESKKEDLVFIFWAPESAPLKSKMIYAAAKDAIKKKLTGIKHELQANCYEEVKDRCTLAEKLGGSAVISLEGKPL

Target: importin 9 (IPO9), human, GST tag cleaved (human) (UniProt Q96P70)
Test: SPR; IPO9 coupled to CM5 chip (80 nM, 6000 RU); cofilin WT or S119A S120A (0–55 μM) or profilin (0–60 μM) series, 300 s injection at 20 μl/min; single replicates; both purified

binding	Substance
binds weakly	S119A S120A cofilin (human cofilin-1 double point mutant) (from UniProt P23528 1-166)
binds weakly	human cofilin-1, wild type (from UniProt P23528 1-166)
